{
  "source": "patent EP0324626A1",
  "about": "“1,4-Dihydropyridine derivatives” (priority 1988, dated 1989)",
  "assay": "Acute toxicity test (limit test and range finding test), oral administration",
  "conditions": "both, ICR, mouse, in vivo",
  "protocol": "The limit test and the range finding test were carried out using the SPF mice, as stated below, and LD₅₀ values were determined.\nThe dead mice are weighed and organ examinations are carried out for macroscopical lesions. Also, on the last day of the test all surviving mice are sacrificed and used for examinations.\nIf the mortality is more than 50% in the limit test, the range finding test is carried out for 14 days with three doses groups including the putative LD₅₀ value. The method is same as the foregoing limit test.",
  "data": [
    {"compound": "COC(=O)C1=C(C)NC(C)=C(C(=O)OC)C1c1ccccc1[N+](=O)[O-]", "note": "[Nifedipine, reference compound]", "values": [
      {"measurement": "LD50 at 14 days", "result": "< 500", "unit": "mg/kg"}
    ]}
  ]
}
